From paper PMC5996148
This is one part of the list.

Tests used:
Test in all cases: protein microarray (ProtoArray v5.0), streptavidin-Alexa Fluor 647
Conditions in all cases: 3'-biotin; 20 mM Tris (pH 7.5), 5 mM MgCl2, 100 mM KCl, 0.1% Tween-20, A/T-rich and random oligonucleotide blockers; temperature not stated; high values mean tight binding
FAAH2 (human) = test system: FAAH2 (human)
FABP3 (human) = test system: FABP3 (human)
FABP7 (human) = test system: FABP7 (human)
FAH (human) = test system: FAH (human)
FAIM (human) = test system: FAIM (human)
FAM102A (human) = test system: FAM102A (human)
FAM106B (human) = test system: FAM106B (human)
FAM108B1 (human) = test system: FAM108B1 (human)
FAM119A (human) = test system: FAM119A (human)
FAM120C (human) = test system: FAM120C (human)

## GGGAGGCTGAGGCAGG [G4-1 biotinylated (PQS2)]
FAAH2 (human)
  binding signal: -0.286 z-score
FABP3 (human)
  binding signal: -0.352 z-score
FABP7 (human)
  binding signal: -0.328 z-score
FAH (human)
  binding signal: -0.338 z-score
FAIM (human)
  binding signal: -0.304 z-score
FAM102A (human)
  binding signal: -0.314 z-score
FAM106B (human)
  binding signal: -0.337 z-score
FAM108B1 (human)
  binding signal: -0.284 z-score
FAM119A (human)
  binding signal: -0.316 z-score
FAM120C (human)
  binding signal: -0.301 z-score
